# Measurements taken from the supplement of paper PMC8728848.
# This is one part of the list.
# B1: BabA (Helicobacter pylori), O52269_HELPY (protein)
# chain: AEDDGFYMSAGYQIGEAAQMVKNTKGIQELSDNYENLSNLLTRYSTLNTLIKLSADPSAVNAARENLGASAKNLIGDTKNSPAYQAVLLAINAAVGFWNVVGYVTQCGGNANGQKSTSSTTIFNNEPGYRSTSITCSLNGHMPGYYGPMSIENFKKLNEAYQILQTALKNGLPALKENNGTVNVTYSYTCSGEGNDNCSLQTTGVTNQNNGTKTETQTIDGKSVTTTISSKVVDSQ
# Legend:
# Test in all cases: glycan array binding signal (z-score within array); higher = stronger binding
# Details in all cases: glycan notation: IUPAC condensed, linker removed
# Glc(a1-6)Glc(a1-6)Glc = molecular target: Glc(a1-6)Glc(a1-6)Glc
# Method in brief: (§1)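 Glycan array binding is given as a within-array Z-score, which can be read as non-binding when negative. The arrays, 3228 of them, came from the Consortium for Functional Glycomics database and were retained only where the protein sequence was available. Z-scores were averaged across arrays of the same protein sequence at different concentrations or buffers and across linkers.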
# [1] = molecular target: Glc(a1-6)Glc(a1-6)Glc(a1-6)Glc
# Method in brief: as §1
# Glc(b1-4)Glc = molecular target: Glc(b1-4)Glc
# Method in brief: as §1
# Glc(b1-6)Glc = molecular target: Glc(b1-6)Glc
# Method in brief: as §1
# GlcA(b1-3)Gal = molecular target: GlcA(b1-3)Gal
# Method in brief: as §1
# GlcA(b1-3)GlcNAc = molecular target: GlcA(b1-3)GlcNAc
# Method in brief: as §1
# GlcA(b1-6)Gal = molecular target: GlcA(b1-6)Gal
# Method in brief: as §1
# [2] = molecular target: GlcA3S(b1-3)Gal(b1-4)GlcNAc(b1-2)Man
# Method in brief: as §1
# [3] = molecular target: GlcA3S(b1-3)Gal(b1-4)GlcNAc(b1-3)Gal(b1-4)Glc
# Method in brief: as §1
# [4] = molecular target: GlcNAc(a1-3)Gal(b1-4)GlcNAc
# Method in brief: as §1
# [5] = molecular target: GlcNAc(a1-4)Gal(b1-3)GlcNAc
# Method in brief: as §1
# [6] = molecular target: GlcNAc(a1-4)Gal(b1-4)GalNAc
# Method in brief: as §1
# [7] = molecular target: GlcNAc(a1-4)Gal(b1-4)GlcNAc
# Method in brief: as §1
# [8] = molecular target: GlcNAc(a1-4)Gal(b1-4)GlcNAc(b1-3)Gal(b1-4)Glc
# Method in brief: as §1
# [9] = molecular target: GlcNAc(a1-4)Gal(b1-4)GlcNAc(b1-3)Gal(b1-4)GlcNAc
# Method in brief: as §1
# [10] = molecular target: GlcNAc(a1-4)Gal(b1-4)GlcNAc(b1-3)Gal(b1-4)GlcNAc(b1-3)Gal(b1-4)GlcNAc
# Method in brief: as §1
# [11] = molecular target: GlcNAc(a1-4)Gal(b1-4)GlcNAc(b1-3)Gal(b1-4)[Fuc(a1-3)]GlcNAc(b1-3)Gal(b1-4)[Fuc(a1-3)]GlcNAc
# Method in brief: as §1
# [12] = molecular target: GlcNAc(a1-6)Gal(b1-4)GlcNAc
# Method in brief: as §1
# [13] = molecular target: GlcNAc(b1-2)Gal(b1-3)GalNAc
# Method in brief: as §1
# [14] = molecular target: GlcNAc(b1-2)Man(a1-3)[GlcNAc(b1-2)Man(a1-6)]Man(b1-4)GlcNAc(b1-4)GlcNAc
# Method in brief: as §1
# [15] = molecular target: GlcNAc(b1-2)Man(a1-3)[GlcNAc(b1-2)Man(a1-6)]Man(b1-4)GlcNAc(b1-4)[Fuc(a1-6)]GlcNAc
# Method in brief: as §1
# [16] = molecular target: GlcNAc(b1-2)Man(a1-3)[GlcNAc(b1-4)][GlcNAc(b1-2)Man(a1-6)]Man(b1-4)GlcNAc(b1-4)GlcNAc
# Method in brief: as §1
# [17] = molecular target: GlcNAc(b1-2)Man(a1-3)[GlcNAc(b1-4)][GlcNAc(b1-2)Man(a1-6)]Man(b1-4)GlcNAc(b1-4)[Fuc(a1-6)]GlcNAc
# Method in brief: as §1
# [18] = molecular target: GlcNAc(b1-2)[GlcNAc(b1-4)]Man(a1-3)[GlcNAc(b1-2)Man(a1-6)]Man(b1-4)GlcNAc(b1-4)GlcNAc
# Method in brief: as §1
# [19] = molecular target: GlcNAc(b1-2)[GlcNAc(b1-4)]Man(a1-3)[GlcNAc(b1-4)][GlcNAc(b1-2)Man(a1-6)]Man(b1-4)GlcNAc(b1-4)GlcNAc
# Method in brief: as §1
# [20] = molecular target: GlcNAc(b1-2)[GlcNAc(b1-4)]Man(a1-3)[GlcNAc(b1-4)][GlcNAc(b1-2)[GlcNAc(b1-6)]Man(a1-6)]Man(b1-4)GlcNAc(b1-4)GlcNAc
# Method in brief: as §1
# [21] = molecular target: GlcNAc(b1-2)[GlcNAc(b1-4)]Man(a1-3)[GlcNAc(b1-4)][GlcNAc(b1-2)[GlcNAc(b1-6)]Man(a1-6)]Man(b1-4)GlcNAc(b1-4)[Fuc(a1-6)]GlcNAc
# Method in brief: as §1
# [22] = molecular target: GlcNAc(b1-2)[GlcNAc(b1-6)]Man(a1-6)[GlcNAc(b1-2)Man(a1-3)]Man(b1-4)GlcNAc(b1-4)GlcNAc
# Method in brief: as §1
# [23] = molecular target: GlcNAc(b1-2)[GlcNAc(b1-6)]Man(a1-6)[GlcNAc(b1-2)Man(a1-3)]Man(b1-4)GlcNAc(b1-4)[Fuc(a1-6)]GlcNAc
# Method in brief: as §1
# [24] = molecular target: GlcNAc(b1-2)[GlcNAc(b1-6)]Man(a1-6)[GlcNAc(b1-4)][GlcNAc(b1-2)Man(a1-3)]Man(b1-4)GlcNAc(b1-4)GlcNAc
# Method in brief: as §1
# GlcNAc(b1-3)Fuc = molecular target: GlcNAc(b1-3)Fuc
# Method in brief: as §1
# GlcNAc(b1-3)Gal = molecular target: GlcNAc(b1-3)Gal
# Method in brief: as §1
# [25] = molecular target: GlcNAc(b1-3)Gal(b1-3)GalNAc
# Method in brief: as §1
# GlcNAc(b1-3)Gal(b1-4)Glc = molecular target: GlcNAc(b1-3)Gal(b1-4)Glc
# Method in brief: as §1
# [26] = molecular target: GlcNAc(b1-3)Gal(b1-4)GlcNAc
# Method in brief: as §1
# [27] = molecular target: GlcNAc(b1-3)Gal(b1-4)GlcNAc(b1-2)Man(a1-3)[GlcNAc(b1-3)Gal(b1-4)GlcNAc(b1-2)Man(a1-6)]Man(b1-4)GlcNAc(b1-4)GlcNAc
# Method in brief: as §1
# [28] = molecular target: GlcNAc(b1-3)Gal(b1-4)GlcNAc(b1-2)Man(a1-3)[GlcNAc(b1-3)Gal(b1-4)GlcNAc(b1-2)Man(a1-6)]Man(b1-4)GlcNAc(b1-4)[Fuc(a1-6)]GlcNAc
# Method in brief: as §1
# [29] = molecular target: GlcNAc(b1-3)Gal(b1-4)GlcNAc(b1-2)[GlcNAc(b1-3)Gal(b1-4)GlcNAc(b1-6)]Man(a1-6)[GlcNAc(b1-3)Gal(b1-4)GlcNAc(b1-2)Man(a1-3)]Man(b1-4)GlcNAc(b1-4)GlcNAc
# Method in brief: as §1
# [30] = molecular target: GlcNAc(b1-3)Gal(b1-4)GlcNAc(b1-3)Gal(b1-4)GlcNAc
# Method in brief: as §1
# [31] = molecular target: GlcNAc(b1-3)Gal(b1-4)GlcNAc(b1-3)Gal(b1-4)GlcNAc(b1-2)Man(a1-3)[GlcNAc(b1-3)Gal(b1-4)GlcNAc(b1-3)Gal(b1-4)GlcNAc(b1-2)Man(a1-6)]Man(b1-4)GlcNAc(b1-4)GlcNAc
# Method in brief: as §1
# [32] = molecular target: GlcNAc(b1-3)Gal(b1-4)GlcNAc(b1-3)Gal(b1-4)GlcNAc(b1-2)Man(a1-3)[GlcNAc(b1-3)Gal(b1-4)GlcNAc(b1-3)Gal(b1-4)GlcNAc(b1-2)Man(a1-6)]Man(b1-4)GlcNAc(b1-4)[Fuc(a1-6)]GlcNAc
# Method in brief: as §1
# [33] = molecular target: GlcNAc(b1-3)Gal(b1-4)GlcNAc(b1-3)Gal(b1-4)GlcNAc(b1-2)[GlcNAc(b1-3)Gal(b1-4)GlcNAc(b1-3)Gal(b1-4)GlcNAc(b1-6)]Man(a1-6)[GlcNAc(b1-3)Gal(b1-4)GlcNAc(b1-3)Gal(b1-4)GlcNAc(b1-2)Man(a1-3)]Man(b1-4)GlcNAc(b1-4)[Fuc(a1-6)]GlcNAc
# Method in brief: as §1
# [34] = molecular target: GlcNAc(b1-3)Gal(b1-4)GlcNAc(b1-3)Gal(b1-4)GlcNAc(b1-3)Gal(b1-4)GlcNAc(b1-2)Man(a1-3)[GlcNAc(b1-3)Gal(b1-4)GlcNAc(b1-3)Gal(b1-4)GlcNAc(b1-3)Gal(b1-4)GlcNAc(b1-2)Man(a1-6)]Man(b1-4)GlcNAc(b1-4)GlcNAc
# Method in brief: as §1
# [35] = molecular target: GlcNAc(b1-3)Gal(b1-4)GlcNAc(b1-3)Gal(b1-4)GlcNAc(b1-3)Gal(b1-4)GlcNAc(b1-2)Man(a1-3)[GlcNAc(b1-3)Gal(b1-4)GlcNAc(b1-3)Gal(b1-4)GlcNAc(b1-3)Gal(b1-4)GlcNAc(b1-2)Man(a1-6)]Man(b1-4)GlcNAc(b1-4)[Fuc(a1-6)]GlcNAc
# Method in brief: as §1
# [36] = molecular target: GlcNAc(b1-3)Gal(b1-4)GlcNAc(b1-3)Gal(b1-4)GlcNAc(b1-3)Gal(b1-4)GlcNAc(b1-2)[GlcNAc(b1-3)Gal(b1-4)GlcNAc(b1-3)Gal(b1-4)GlcNAc(b1-3)Gal(b1-4)GlcNAc(b1-6)]Man(a1-6)[GlcNAc(b1-3)Gal(b1-4)GlcNAc(b1-3)Gal(b1-4)GlcNAc(b1-3)Gal(b1-4)GlcNAc(b1-2)Man(a1-3)]Man(b1-4)GlcNAc(b1-4)[Fuc(a1-6)]GlcNAc
# Method in brief: as §1
binder,measurement,setting,value
B1,glycan array binding signal (z-score),Glc(a1-6)Glc(a1-6)Glc,0.573
same,glycan array binding signal (z-score),[1],0.59
same,glycan array binding signal (z-score),Glc(b1-4)Glc,-0.119
same,glycan array binding signal (z-score),Glc(b1-6)Glc,0.7
same,glycan array binding signal (z-score),GlcA(b1-3)Gal,-0.056
same,glycan array binding signal (z-score),GlcA(b1-3)GlcNAc,0.551
same,glycan array binding signal (z-score),GlcA(b1-6)Gal,-0.267
same,glycan array binding signal (z-score),[2],-0.555
same,glycan array binding signal (z-score),[3],-0.718
same,glycan array binding signal (z-score),[4],-0.521
same,glycan array binding signal (z-score),[5],-0.604
same,glycan array binding signal (z-score),[6],1.61
same,glycan array binding signal (z-score),[7],1.1
same,glycan array binding signal (z-score),[8],0.087
same,glycan array binding signal (z-score),[9],1.12
same,glycan array binding signal (z-score),[10],-1.14
same,glycan array binding signal (z-score),[11],2.51
same,glycan array binding signal (z-score),[12],-0.128
same,glycan array binding signal (z-score),[13],-0.387
same,glycan array binding signal (z-score),[14],0.294
same,glycan array binding signal (z-score),[15],-0.602
same,glycan array binding signal (z-score),[16],0.726
same,glycan array binding signal (z-score),[17],-0.664
same,glycan array binding signal (z-score),[18],-0.455
same,glycan array binding signal (z-score),[19],-0.437
same,glycan array binding signal (z-score),[20],-0.555
same,glycan array binding signal (z-score),[21],-0.373
same,glycan array binding signal (z-score),[22],-0.364
same,glycan array binding signal (z-score),[23],0.399
same,glycan array binding signal (z-score),[24],-0.537
same,glycan array binding signal (z-score),GlcNAc(b1-3)Fuc,-0.092
same,glycan array binding signal (z-score),GlcNAc(b1-3)Gal,-1.16
same,glycan array binding signal (z-score),[25],-0.168
same,glycan array binding signal (z-score),GlcNAc(b1-3)Gal(b1-4)Glc,0.005
same,glycan array binding signal (z-score),[26],-1.05
same,glycan array binding signal (z-score),[27],0.363
same,glycan array binding signal (z-score),[28],1.03
same,glycan array binding signal (z-score),[29],1.25
same,glycan array binding signal (z-score),[30],-0.955
same,glycan array binding signal (z-score),[31],4.69
same,glycan array binding signal (z-score),[32],2.82
same,glycan array binding signal (z-score),[33],3.66
same,glycan array binding signal (z-score),[34],0.899
same,glycan array binding signal (z-score),[35],2.94
same,glycan array binding signal (z-score),[36],2.92

# Quoted from the results shown for reference:
binder,measurement,setting,value
B1,glycan array binding signal (z-score),[11],2.51
same,glycan array binding signal (z-score),[12],-0.128
same,glycan array binding signal (z-score),[13],-0.387
same,glycan array binding signal (z-score),[14],0.294
